The values that follow come from patent US7172751B2 (Immunomedics, Inc., priority 2003, dated 2007).

The nature of data set [1]: general procedure: Fmoc solid-phase peptide synthesis; Sieber Amide resin; Rink Amide resin; diisopropylcarbodiimide then HBTU (double coupling); BOP/HBTU. The conditions noted are these: for difficulty met: purification step; for final HPLC purity: whole synthesis.
Data set [2] in a line: general procedure: Fmoc solid-phase peptide synthesis; Rink Amide resin; diisopropylcarbodiimide then HBTU (double coupling); BOP/HBTU. The conditions noted are these: whole synthesis, scale 1.0 g, 0.6 mmol/g.

“DOTA-D-Ala-D-Lys(HSG)-D-Glu-D-Lys(HSG)-NH2”: in data set [1], the difficulty met result is recorded as “due to impurities discovered after the initial purification, was repurified twice more” and the “final HPLC purity” value was “˜97%”.
With “DOTA-D-Phe-D-Lys(HSG)-D-Tyr-D-Lys(HSG)-NH2”, in data set [1], the difficulty met result is “due to impurities discovered after the initial purification, was repurified twice more” and the “final HPLC purity” value is listed as “˜97%”. The substance also had an isolated mass in data set [2] of 248.1 mg.
